Test results as given in US20260166139A1.
No constants are given. Whether binding was seen depends on the method and setting. Some binding calls cover weakened binding; strength is not graded here.

The chains behind the UniProt entries cited, without tags or fusion partners. Residues count along the entry.
UniProt P16410, residues 36-223: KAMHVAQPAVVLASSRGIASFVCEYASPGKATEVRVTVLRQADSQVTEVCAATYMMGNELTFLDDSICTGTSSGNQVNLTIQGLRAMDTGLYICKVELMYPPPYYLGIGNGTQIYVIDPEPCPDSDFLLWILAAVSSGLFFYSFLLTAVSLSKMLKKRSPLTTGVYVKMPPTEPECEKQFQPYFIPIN

Biological target: CTLA4 antigen on the surface of 293F-CTLA4 host cells (UniProt P16410)
Experiment: flow cytometry, 293F-CTLA4 cells

| Binder | binding |
| --- | --- |
| 8D2 recombinant antibody, 8D2(Re) (antibody, V domains shown) VH: EVKLDETGGGLVQPGRPMKLSCVASGFTFSDNWMNWVRQSPEKGLEWLAQIRNKPYNYETYYSDSVKGRFTISRDDSKSSVYLQMNNLRGEDMGIYYCTAQFAYWGQGTLVTVSA VL: DIQMTQSPASLSASVGETVTITCGTSENIYGGLNWYQRKQGKSPQLLIFGATNLADGMSSRFSGSGSGRQYSLKISSLHPDDVATYYCQNVLRSPFTFGSGTKLEI | binds |
| humanized antibody 8D2H1L1 (antibody, V domains shown) VH: EVQLVESGGGLVQPGGSMRLSCAASGFTFSDNWMNWVRQAPGKGLEWLAQIRNKPYNYETYYSDSVKGRFTISRDDSKNSVYLQMNSLKTEDTGVYYCTAQFAYWGQGTLVTVSS VL: DIQMTQSPSSLSASVGDRVTITCRTSENIYGGLNWYQRKQGKSPKLLIYGATNLASGMSSRFSGSGSGTDYTLKISSLHPDDVATYYCQNVLRSPFTFGSGTKLEIK | binds |
| humanized antibody 8D2H2L2 (antibody, V domains shown) VH: EVQLVESGGGLVQPGGSMRLSCAASGFTFSDNWMNWVRQAPGKGLEWLAQIRNKPYNYETYYSASVKGRFTISRDDSKNSVYLQMNSLKTEDTGVYYCTAQFAYWGQGTLVTVSS VL: DIQMTQSPSSLSASVGDRVTITCRTSENIYGGLNWYQRKPGKSPKLLIYGATNLASGVSSRFSGSGSGTDYTLTISSLQPEDVATYYCQNVLRSPFTFGSGTKLEIK | binds |

Now from value to binder:

| binding | Binder |
| --- | --- |
| binds | monoclonal antibody 8D2 (antibody, V domains shown) VH: EVKLDETGGGLVQPGRPMKLSCVASGFTFSDNWMNWVRQSPEKGLEWLAQIRNKPYNYETYYSDSVKGRFTISRDDSKSSVYLQMNNLRGEDMGIYYCTAQFAYWGQGTLVTVSA VL: DIQMTQSPASLSASVGETVTITCGTSENIYGGLNWYQRKQGKSPQLLIFGATNLADGMSSRFSGSGSGRQYSLKISSLHPDDVATYYCQNVLRSPFTFGSGTKLEI |
| binds | humanized antibody 8D2H3L3 (antibody, V domains shown) VH: EVQLVESGGGLVQPGGSLRLSCAASGFTFSDNWMNWVRQAPGKGLEWVAQIRNKPYNYETEYAASVKGRFTISRDDSKNSAYLQMNSLKTEDTAVYYCTAQFAYWGQGTLVTVSS VL: DIQMTQSPSSLSASVGDRVTITCRASENIYGGLNWYQQKPGKAPKLLIYGATSLASGVPSRFSGSGSGTDYTLTISSLQPEDFATYYCQNVLRSPFTFGSGTKLEIK |
